Results reported in US10722563B2, “Prostate-specific tumor antigens and uses thereof” (SHENZHEN INNOVATION IMMUNOTECHNOLOGY CO., LTD., priority 2012, dated 2020).
Some of these results come from one statement about several compounds together.

These sequences were tested on PBMCs of ten HLA-A2+ healthy subjects (assay: In vitro stimulation of peptide-specific T cells in PBMCs of healthy subjects, IFN-γ release by ELISA).
Assay type: cell-based, human
Protocol: Ten HLA-A2+ prostate cancer patients and ten HLA-A2+ healthy subjects were enrolled in this study after written informed consent was obtained. All protocols were approved by the Institutional Review Board (IRB) of Baylor College of Medicine before commencing studies. 20 mL of peripheral blood was obtained from each person, and peripheral blood mononuclear cells (PBMCs) were isolated by density gradient centrifugation using Lymphoprep (Nycomed Pharma AS; Oslo, Norway). The freshly isolated PBMCs were cryopreserved for later use in 1 mL freezing medium containing 90% FCS and 10% dimethyl sulfoxide (DMSO) at −140° C. The expression of HLA-A2 molecules on PBMCs obtained from cancer patients and healthy subjects was verified by flow cytometry with FITC-labeled HLA-A2 mAb BB7.2 (BD Pharmingen, San Diego, Calif., USA).
PBMCs (1×10^5 cells/well) from either healthy subjects or prostate cancer patients were incubated with standard peptide concentrations of 20 μg/mL per peptide in 96-well U-bottom microplates (BD, Franklin Lakes, N.J., USA) in 200 μL of T-cell medium (TCM), consisting of RPMI 1640 (Mediatech, Manassas, Va., USA), 10% human AB serum (Valley Biomedical, Winchester, USA), 50 μM of 2-mercaptoethanol, 100 U/mL of interleukin-2 (IL-2), and 0.1 mM MEM nonessential amino acid solution (Invitrogen, Grand Island, N.Y., USA). Half of the TCM was removed and replaced with fresh TCM containing peptides (20 μg/mL) every 5 days. […] After 18 hours of incubation, supernatants were collected, and IFN-γ release was determined by ELISA assay.
Cytokine release was measured by coating 96-well ELISA plates (Thermo Fisher Scientific; Rochester, N.Y., USA) with 1 μg/mL anti-human IFN-γ (Pierce Biotechnology; Rockford, Ill., USA) overnight at 4° C. […] The colorimetric reaction was stopped using 2N H2SO4 and plates were read at 450 nm using an ELISA plate reader. […]
In the case of ILANIYLLV (PSGR3), the “healthy subjects in which peptide-specific T cells were found” value (shortened to “healthy subjects”) is reported as “more than 70%”.
VILANIYLLV (PSGR14) was tested, and the “healthy subjects” value was “more than 70%”.
WLAFPLCSL (PSGR4) was tested, and the “healthy subjects” value was “more than 70%”.
